# Source: paper PMC3893189
# By UniProt entry, the sequences of proteins in these tests, tags left out. Where a name states a change or a piece, a line headed by the entry shows the natural chain unless it says otherwise.
# UniProt Q9RWH8: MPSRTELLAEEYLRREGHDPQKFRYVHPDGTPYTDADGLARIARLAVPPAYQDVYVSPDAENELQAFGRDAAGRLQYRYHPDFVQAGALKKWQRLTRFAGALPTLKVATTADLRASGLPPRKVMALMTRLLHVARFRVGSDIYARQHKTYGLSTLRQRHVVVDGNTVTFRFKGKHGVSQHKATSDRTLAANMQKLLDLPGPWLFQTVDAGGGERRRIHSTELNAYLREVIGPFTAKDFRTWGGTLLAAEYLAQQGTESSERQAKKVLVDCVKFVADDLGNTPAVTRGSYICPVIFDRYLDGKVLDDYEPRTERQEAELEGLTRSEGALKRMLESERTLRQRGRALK
# Biological target: T1, His-PprA (recombinant PprA from pETpprA) (Deinococcus radiodurans R1) (UniProt O32504)
# T1 sequence: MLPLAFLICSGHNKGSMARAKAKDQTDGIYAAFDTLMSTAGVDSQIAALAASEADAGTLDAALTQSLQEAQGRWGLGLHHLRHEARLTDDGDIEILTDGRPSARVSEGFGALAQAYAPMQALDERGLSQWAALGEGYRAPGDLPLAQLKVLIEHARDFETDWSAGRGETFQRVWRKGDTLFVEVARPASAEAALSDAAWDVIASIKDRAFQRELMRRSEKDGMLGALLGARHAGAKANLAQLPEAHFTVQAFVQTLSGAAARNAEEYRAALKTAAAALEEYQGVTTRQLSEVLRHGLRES
# Assay: co-IP; cell free extracts of E. coli with His-PprA and His-DraTopoIB mixed, 4°C, 3 h; precipitated with PprA specific antibody and Protein G agarose in binding buffer (140 mM NaCl, 8 mM sodium phosphate, 2 mM potassium phosphate, 10 mM KCl, pH 7.4); eluted with 500 mM NaCl; blot with anti-His antibodies
substance,measurement,value
His-DraTopoIB (recombinant D. radiodurans topoisomerase IB from pETtopoIB) (from UniProt Q9RWH8) (enzyme),binding,binds

# These are yes or no findings as the source states them, for the method shown. Binding seen in cells or lysates may run through a third protein. Binding can be weak; no strength is given. Sequences can lack the tags named with a protein.
